No constants are given. Whether binding was seen depends on the method and setting. Binding can be weak; no strength is given.
Biological target: Actin-binding LIM protein 1 (ABLIM1) (human) (UniProt O14639)
Test: peptide or protein array; ProtoArray human protein Microarray v5.0 (over 9000 human proteins arrayed) probed with recombinant sEng in two replicates; detection with anti-endoglin mAb SN6h and HRP secondary antibody; hits with Z-score >=2.0 in both arrays; both purified

Chains of the proteins cited; added tags and fusions are not shown. Lines headed by an entry give the natural chain unless they say otherwise; changes in a name come on top. Residues count along the entry.
UniProt O14639: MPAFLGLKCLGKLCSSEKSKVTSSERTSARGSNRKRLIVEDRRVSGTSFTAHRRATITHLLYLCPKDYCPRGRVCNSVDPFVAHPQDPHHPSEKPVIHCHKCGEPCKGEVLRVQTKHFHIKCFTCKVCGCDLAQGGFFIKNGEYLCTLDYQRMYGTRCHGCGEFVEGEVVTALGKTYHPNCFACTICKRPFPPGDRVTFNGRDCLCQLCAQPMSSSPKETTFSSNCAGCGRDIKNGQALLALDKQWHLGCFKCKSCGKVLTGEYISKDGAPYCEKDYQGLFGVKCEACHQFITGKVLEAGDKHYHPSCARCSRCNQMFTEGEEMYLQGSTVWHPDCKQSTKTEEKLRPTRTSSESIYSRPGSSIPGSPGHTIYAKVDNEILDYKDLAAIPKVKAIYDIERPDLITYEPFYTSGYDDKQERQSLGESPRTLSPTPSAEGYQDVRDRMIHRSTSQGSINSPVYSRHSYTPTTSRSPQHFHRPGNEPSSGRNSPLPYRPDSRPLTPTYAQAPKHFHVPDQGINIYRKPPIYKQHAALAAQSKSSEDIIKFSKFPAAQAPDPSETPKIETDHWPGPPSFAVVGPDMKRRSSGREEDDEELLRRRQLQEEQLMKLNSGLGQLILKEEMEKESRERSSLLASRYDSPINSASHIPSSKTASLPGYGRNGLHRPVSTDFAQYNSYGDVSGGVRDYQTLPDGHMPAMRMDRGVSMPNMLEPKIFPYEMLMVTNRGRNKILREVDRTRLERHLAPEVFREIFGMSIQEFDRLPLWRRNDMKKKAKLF
UniProt P17813, residues 26-586: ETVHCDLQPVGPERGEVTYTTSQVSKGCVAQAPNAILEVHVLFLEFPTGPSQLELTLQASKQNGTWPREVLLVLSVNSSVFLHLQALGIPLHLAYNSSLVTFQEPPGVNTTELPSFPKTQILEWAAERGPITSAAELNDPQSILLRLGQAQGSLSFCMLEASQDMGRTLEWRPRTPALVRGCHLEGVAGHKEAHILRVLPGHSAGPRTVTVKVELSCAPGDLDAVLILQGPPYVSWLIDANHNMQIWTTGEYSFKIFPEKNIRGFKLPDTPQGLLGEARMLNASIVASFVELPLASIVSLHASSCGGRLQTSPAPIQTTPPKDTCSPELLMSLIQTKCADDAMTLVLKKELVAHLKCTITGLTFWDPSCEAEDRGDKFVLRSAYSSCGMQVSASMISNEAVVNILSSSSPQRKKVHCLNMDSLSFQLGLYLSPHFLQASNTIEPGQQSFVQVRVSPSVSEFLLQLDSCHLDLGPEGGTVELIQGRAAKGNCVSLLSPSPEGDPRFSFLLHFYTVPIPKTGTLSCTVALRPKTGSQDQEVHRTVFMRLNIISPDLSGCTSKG

binding: binds
Substance: recombinant human soluble endoglin (sEng; Glu26-Gly586) (from UniProt P17813 26-586) (domain or fragment)

From publication PMC6769930
